Data reported in patent US20190072541A1, “BIOMARKERS FOR TREATMENT OF ALOPECIA AREATA” (THE TRUSTEES OF COLUMBIA UNIVERSITY IN THE CITY OF NEW YORK, priority 2015, published 2019).
At least one structure is not confirmed: it was looked up by name or label, or the drawing left a doubt. Some entries share one result that the patent states for a list of compounds.

Columns and labels:
C3H/HeJ grafted mice = experiment: Prevention of AA in C3H/HeJ skin graft model, systemic treatment from time of grafting; assay type: in vivo, mouse; conditions: systemic administration from the time of grafting
Text: IL-2 and IL-15 are well-known drivers of cytotoxic activity by IFN-γ-producing CD8+ effector T cells and NK cells and have been implicated in the induction and/or maintenance of autoreactive CD8+ T cells. To test the efficacy of IFN-γ- and γ c-targeted therapies in vivo, the inventors used the well-established graft model of AA, in which skin grafts from mice with spontaneous AA are transferred onto the backs of unaffected 10-week-old recipient C3H/HeJ mice. In this model, AA develops reliably in 95-100% of grafted recipients within 6-10 weeks, allowing us to test interventions aimed at either preventing or reversing disease.
C3H/HeJ mouse strain (Jackson Laboratories, Bar Harbor, Me.) was used for all animal studies. Only female mice were used. Mouse recipients of alopecic skin grafts were aged 7-10 weeks at the time of grafting. For prevention experiments, drug administration began the day after grafting. For systemic treatment studies, drug administration was initiated approximately 3 months after mice lost their hair. For topical treatment studies, drug administration was initiated 20 weeks following grafting. […]
For the prevention experiments, a time-to-event survival analysis for interval censored data was performed. […] Hair growth index was calculated.

[1] = system: dermal sheath cells from C3H/HeJ mice; experiment: Cytokine responses in in vitro-cultured dermal sheath cells; assay type: cell-based, mouse
[2] = system: patients with moderate to severe AA; experiment: Oral ruxolitinib in three patients with moderate to severe AA (hair regrowth, biopsies); assay type: in vivo, human
[3] = system: C3H/HeJ mice with long-standing AA; experiment: Topical treatment of established AA in grafted C3H/HeJ mice; assay type: in vivo, mouse; conditions: for time to complete hair regrowth: topical therapy; for time by which a full coat of hair emerged: weeks of treatment
Text: This experiment was repeated three times. […] NS, not significant. […] Scale bar, 100 μm. […] Scale bar, 200 μm.
Only female mice were used.

[4] = system: patients with moderate to severe AA; experiment: Open-label trial of oral ruxolitinib in 12 patients with moderate to severe AA: hair regrowth (SALT); assay type: in vivo, human
Text: The study's primary efficacy endpoint was the proportion of responders at end of treatment, defined as those subjects achieving at least 50% regrowth compared to baseline assessed by the Severity of Alopecia Tool (SALT) score, a standardized, validated method for estimating hair loss in AA. Secondary efficacy endpoints included hair re-growth as a continuous variable. […] To assess response durability, responders were followed for 3 months after treatment was completed. Safety analysis was included as a secondary endpoint for all subjects who received at least one dose of ruxolitinib and was monitored as described at monthly visits.

[5] = system: ALADIN CTL, IFN and KRT signatures; experiment: Skin biopsy gene expression / ALADIN scores in ruxolitinib trial; set-up: species or system human; conditions: in vivo
Text: Biopsies and peripheral blood were obtained at baseline and after 12 weeks for immune monitoring and molecular studies. Several patients provided additional biopsies at intermediate time points during the course of treatment, and one patient provided an additional sample at week 24. Tissues specimens were fixed and stored in PAXgene Tissue Containers. Total RNA was extracted from skin biopsy specimens harvested during the course of the clinical trial using the PAXgene tissue miRNA kit. Library prep was performed for microarray analysis using Ovation RNA Amplification System V2 and Biotin Encore kits (NuGen Technologies, Inc., San Carlos, Calif.). Samples were subsequently hybridized to Human Genome U133 Plus 2.0 chips (Affymetrix, Santa Clara, Calif.) and scanned at the Yale Center for Genome Analysis. […]
ALADIN scores were calculated for all […] using the batch corrected expression data. The CTL, IFN, and KRT ALADIN scores were determined following procedures outlined previously. Briefly, z-scores are calculated for each PSID relative to the mean and standard deviation of normal controls. […] Signature scores are then calculated averages of the scores for genes belonging to the corresponding signature. […]

[6] = biopsies, baseline vs 12 weeks of treatment
[7] = 3 month follow-up off treatment

| SMILES | AA development in grafted recipients (C3H/HeJ grafted mice) | CD8+NKG2D+ T cells in the skin (infiltration, accumulation, expansion) (C3H/HeJ grafted mice) | STAT1 activation increased by exogenous IFN-γ [1] | surface IL-15 expression increased by IFN-γ plus TNF-α [1] | ALADIN inflammatory and hair keratin signatures [2, 6] | follicular expression of human leukocyte antigen class I and class II [2, 6] | perifollicular T cell infiltration [2, 6] | hair regrowth ([2]; oral, 20 mg twice daily, all three patients) | time to complete hair regrowth [3] | reversal of disease in treated lesions ([3]; topical, applied to back skin) | time by which a full coat of hair emerged ([3]; topical) | hair loss off drug relative to baseline [4, 7] | responders reporting mild increased shedding off drug [4, 7] | responders with shedding from week 3 after discontinuation and significant hair loss at week 12 off drug [4, 7] | first regrowth seen in responders ([4]; human, in vivo) | responders achieving at least 50% regrowth by the week 12 visit ([4]; human, in vivo) | responders with near complete responses by 6 months of treatment ([4]; human, in vivo) | areas of vitiligo in subject 4 ([4]; one patient with concurrent vitiligo) | responders achieving over 95% regrowth by end of treatment ([4]; responders) | clustering of scalp sample gene expression profiles following treatment [5] |
| --- | --- | --- | --- | --- | --- | --- | --- | --- | --- | --- | --- | --- | --- | --- | --- | --- | --- | --- | --- | --- |
| N#CC[C@H](C1CCCC1)n1cc(-c2ncnc3[nH]ccc23)cn1 [ruxolitinib] | prevented the development of AA | prevented | inhibited | inhibited | normalization | reduced | reduced perifollicular T cell infiltration | near-complete hair regrowth | ≤ 12 weeks | highly effective in reversing disease in treated lesions | ≤ 7 weeks | hair loss did not reach baseline levels | Six of nine responders | Three of nine responders | as soon as four weeks after study medication was initiated | 8 of 9 | 8 of 9 responders | noted to improve | seven of the nine responders | clustered more closely with healthy control scalp samples than with baseline AA samples |
| C[C@@H]1CCN(C(=O)CC#N)C[C@@H]1N(C)c1ncnc2[nH]ccc12 [tofacitinib] |  |  |  |  |  |  |  |  | ≤ 12 weeks |  | ≤ 7 weeks |  |  |  |  |  |  |  |  |  |
